Library screen at single concentrations

The values are deposited in ChEMBL (CHEMBL3988442, “University of Dundee, Small-Polar-MMV Screening Library” (2021)).

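Whole-parasite assay of Trypanosoma brucei over 72 hours; the read-out is not stated. Tested at 10 µM. The record gives no direction; compounds that gave an IC50 in retests scored well above the rest, so higher reads as stronger inhibition. Values scatter widely below zero; nearly all retest evidence comes from the higher of the two concentrations used. About 2,700 compounds were tested under these conditions; 0.51% (about 14) showed 50% or more at least once.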

Values are the deposited “Percent Effect”, in %.
The controls that fix the scale are not given in the record; negative values are as filed.
This is an unselected part of the compounds tested.

SMILES | percent effect
CCN(Cc1nc2c(cnn2C)c(=O)[nH]1)c1ccc(F)cc1 | -2.554
O=C(CCc1nc(-c2ccccn2)no1)N1CCCC1c1ccsc1 (stereo unspecified) | -21.37
Fc1ccc(-c2nnc(CN3CCCC(Cn4cncn4)C3)o2)cc1 (stereo unspecified) | -33.53
Cc1nc(CN(C)C2CCN(CCc3ccc4c(c3)CCO4)C2)no1 (stereo unspecified) | -17.17
Cc1cc(NC(=O)CN2CCCC2c2noc(C3CC3)n2)n(C)n1 (stereo unspecified) | -65.41
c1ccc(CCN2CCOC(CNc3cccnn3)C2)nc1 (stereo unspecified) | -61.25
CCc1nccn1C1CCCN(C(=O)c2csc(C3CC3)n2)C1 (stereo unspecified) | -54.74
Cc1cnn(C2CCCN(C(=O)c3cn(-c4ccccc4)nn3)C2)c1 (stereo unspecified) | -75.01
CNc1cc(N2CCCC2CNCc2cnc(C)s2)ncn1 (stereo unspecified) | -56.91
Cc1ccc(C(=O)N2CCCC(c3nncn3C)C2)c(C)c1 (stereo unspecified) | -59.81
CCc1noc(CN2CCCN(Cc3cccs3)CC2)n1 | -56.1
O=C(NCCNc1ccc(C(F)(F)F)cn1)c1ccc(Br)cc1 | -48.06
Cc1ccc(CNC(=O)CCNS(C)(=O)=O)cc1 | -11.32
Cc1cc(C)n(CC2CCCCN2C(=O)c2ccc3c(c2)COC3)n1 (stereo unspecified) | -3.538
Cc1cnn(CC(C)NCc2csc(-c3ncccn3)n2)c1 (stereo unspecified) | -5.653
c1cncc(-c2noc(CN3CCc4cncnc4C3)n2)c1 | -9.278
CC(=O)N(Cc1ncc(C)o1)C1CCN(Cc2sc(C)nc2C)C1 (stereo unspecified) | -21.16
CNC(C(=O)OC)c1cc(F)ccc1F.Cl (stereo unspecified) | -43.21
C=C(C)CN1CCN(Cc2nccn2C)C(C)C1 (stereo unspecified) | -42.87
CC(C)NC(=O)NCc1ccc(C(=O)NC(C)Cn2cccn2)cc1 (stereo unspecified) | -50.01
CCn1ccnc1CN1CCN(CCC(=O)NC2CCCCC2)CC1 | -61.21
CC(C)n1ccnc1CN1CCCN(C(=O)CN(C)C2CC2)CC1 | -3.394
CC(C)c1n[nH]c(C2CN(C(=O)c3cc4c(s3)CCC4)CCO2)n1 (stereo unspecified) | -7.725
O=C(c1ccc2c(c1)COC2)N1CCN(CCO)CC1 | -0.6968
CCc1ccc(S(=O)(=O)Nc2ccc(F)cc2C(=O)O)s1 | -105.5
Cc1nc(CN(C)C2CCN(Cc3cnc(C)s3)C2)no1 (stereo unspecified) | -42.59
CN1CCC/C1=N\S(=O)(=O)c1ccc(NC(=O)Cc2cccs2)cc1 | -34.88
CN(Cc1ccsc1)C(=O)Nc1ccc(S(C)(=O)=O)cc1 | -17.49
Cc1ccc(C(=O)N(C)Cc2cc(C)on2)cn1 | -24.97
CC(=O)Nc1nc(C(=O)NCc2ccc(OC(C)C)nc2)cs1 | -5.382
CC(=O)N(Cc1ncc(C(C)C)o1)C1CCN(CCn2cncn2)C1 (stereo unspecified) | -39.76
CSc1ccc(CNC(c2ccccc2F)c2nccn2C)cc1.Cl (stereo unspecified) | -81.16
c1ccc(-c2nnc(CN3CCOC(Cn4cccn4)C3)o2)cc1 (stereo unspecified) | -8.998
CN(C)c1cc(C(=O)N2CCCCC2Cn2cccn2)ccn1 (stereo unspecified) | -48.79
O=C(Cc1csc(-c2ccco2)n1)N1CCN(c2nccs2)CC1 | -7.931
CC(C)c1nc(CN2CCCN(Cc3nccn3C)CC2)no1 | -18.88
CCCNC(=O)C1CCN(Cc2csc(CC)n2)CC1 | -18.06
O=C(NCc1nn(-c2ccccc2)c2c1CCC2)C1CC1 | -23.55
COCCC(C)NC(=O)c1cc(Br)c2c(c1)OCCO2 (stereo unspecified) | -18
O=C(NCCc1ccc(I)s1)N1CCC1 | -37.92
CC1CCCN(C(=O)CNC(=O)c2ccoc2)C1 (stereo unspecified) | -34.38
COc1ccc(C2=CCN(C(=O)CN(C)Cc3ccco3)CC2)cc1 | 2.34
CS(=O)(=O)NCCN1CCCC1c1ccc(Cl)cc1 (stereo unspecified) | -31.37

The first 2 entries again:

| SMILES | percent effect |
|---|---|
| `CCN(Cc1nc2c(cnn2C)c(=O)[nH]1)c1ccc(F)cc1` | -2.554 |
| `O=C(CCc1nc(-c2ccccn2)no1)N1CCCC1c1ccsc1` (stereo unspecified) | -21.37 |